Measurements as given in PMC3398031.

Target: CXCR4-v1/v2 homodimer (CXCR4-venus(1-157) with CXCR4-venus(158-238), BiFC-reconstituted)
Experiment: split reporter + FRET or BRET; BiFC-BRET in HEK293 cells, 48 h after co-transfection: receptor pairs tagged with venus halves (v1/v2) as acceptor, Rluc-tagged protein as donor; Rluc alone as negative control

binding: binds
B1: DRiP78-Rluc (Dopamine Receptor-interacting Protein 78 fused to Renilla luciferase) (protein, UniProt Q6Y2X3 1-702)
chain: MAQKHPGERGLYGAHHSGGASLRTLGPSVDPEIPSFSGLRDSAGTAPNGTRCLTEHSGPKHTQHPNPAHWLDPSHGPPGGPGPPRDAEDPDQSETSSEEESGVDQELSKENETGNQKDGNSFLSIPSACNCQGTPGIPEGPYSEGGNGSSSNFCHHCTSPALGEDELEEEYDDEESLKFPSDFSRVSSGKKPPSRRQRHRFPTKEDTREGGRRDPRSPGRHRLGRKRSQADKRKGLGLWGAEELCQLGQAGFWWLIELLVLVGEYVETCGHLIYACRQLKSSDLDLFRVWMGVWTGRLGGWAQVMFQFLSQGFYCGVGLFTRFLKLLGALLLLALALFLGFLQLGWRFLVGLGDRLGWRDKATWLFSWLDSPALQRCLTLLRDSRPWQRLVRIVQWGWLELPWVKQNINRQGNAPVASGRYCQPEEEVARLLTMAGVPEDELNPFHVLGVEATASDVELKKAYRQLAVMVHPDKNHHPRAEEAFKVLRAAWDIVSNAEKRKEYEMKRMAENELSRSVNEFLSKLQDDLKEAMNTMMCSRCQGKHRRFEMDREPKSARYCAECNRLHPAEEGDFWAESSMLGLKITYFALMDGKVYDITEWAGCQRVGISPDTHRVPYHISFGSRIPGTRGRQRATPDAPPADLQDFLSRIFQVPPGQMPNGNFFAAPQPAPGAAAASKPNSTVPKGEAKPKRRKKVRRPFQR

These are yes or no findings as the source states them, for the method shown. Binding seen in cells or lysates may run through a third protein. A result given as binding can be weak or reduced; the word gives no strength. Where a sequence is shown, tags or fusion partners need not be part of it.
